Reference: article doi:10.1101/572826
These are yes or no findings as the source states them, for the method shown. For some of these results: In cells and extracts the contact can be indirect. For some of these results: Binding can be weak; no strength is given. Where a sequence is shown, tags or fusion partners need not be part of it.

How the values were obtained:
[1] = biological target: potato PAD4 (StPAD4), LexA BD fusion for yeast two-hybrid (potato (Solanum tuberosum)); assay: two-hybrid
[2] = biological target: tomato PAD4 (SlPAD4), LexA BD fusion for yeast two-hybrid (tomato (Solanum lycopersicum)); assay: two-hybrid
[3] = biological target: 3xFLAG-HvEDS1 (pAtEDS1:3xFLAG-HvEDS1) (barley (Hordeum vulgare)); assay: co-IP
[4] = biological target: 3xFLAG-SlEDS1 (pAtEDS1:3xFLAG-SlEDS1) (tomato (Solanum lycopersicum)); assay: co-IP

binding [1]	binding [2]	binding [3]	binding [4]	Binder
no binding	no binding	–	–	Arabidopsis EDS1 (AtEDS1), Gal4 AD fusion for yeast two-hybrid (protein, UniProt Q9XF23 1-623) MAFEALTGINGDLITRSWSASKQAYLTERYHKEEAGAVVIFAFQPSFSEKDFFDPDNKSSFGEIKLNRVQFPCMRKIGKGDVATVNEAFLKNLEAVIDPRTSFQASVEMAVRSRKQIVFTGHSSGGATAILATVWYLEKYFIRNPNVYLEPRCVTFGAPLVGDSIFSHALGREKWSRFFVNFVTRFDIVPRITLARKASVEETLPHVLAQLDPRNSSVQESEQRITEFYTSVMRDTSTVANQAVCELTGSAEAILETLSSFLELSPYRPAGTFVFSTEKRLVAVNNSDAILQMLFYTCQASDEQEWSLIPFRSIRDHHSYEELVQSMGMKLFNHLDGENSIESSLNDLGVSTRGRQYVQAALEEEKKRVENQKKIIQVIQQERFLKKLAWIEDEYKPKCQAHKNGYYDSFKVSNEENDFKANVKRAELAGVFDEVLGLLKKCQLPDEFEGDIDWIKLATRYRRLVEPLDIANYHRHLKNEDTGPYMKRGRPTRYIYAQRGYEHHILKPNGMIAEDVFWNKVNGLNLGLQLEEIQETLKNSGSECGSCFWAEVEELKGKPYEEVEVRVKTLEGMLREWITAGEVDEKEIFLEGSTFRKWWITLPKNHKSHSPLRDYMMDEITDT
–	–	no binding	binds	YFP-AtPAD4 (pAtPAD4:YFP-AtPAD4) (protein, UniProt Q9S745 1-541) MDDCRFETSELQASVMISTPLFTDSWSSCNTANCNGSIKIHDIAGITYVAIPAVSMIQLGNLVGLPVTGDVLFPGLSSDEPLPMVDAAILKLFLQLKIKEGLELELLGKKLVVITGHSTGGALAAFTALWLLSQSSPPSFRVFCITFGSPLLGNQSLSTSISRSRLAHNFCHVVSIHDLVPRSSNEQFWPFGTYLFCSDKGGVCLDNAGSVRLMFNILNTTATQNTEEHQRYGHYVFTLSHMFLKSRSFLGGSIPDNSYQAGVALAVEALGFSNDDTSGVLVKECIETATRIVRAPILRSAELANELASVLPARLEIQWYKDRCDASEEQLGYYDFFKRYSLKRDFKVNMSRIRLAKFWDTVIKMVETNELPFDFHLGKKWIYASQFYQLLAEPLDIANFYKNRDIKTGGHYLEGNRPKRYEVIDKWQKGVKVPEECVRSRYASTTQDTCFWAKLEQAKEWLDEARKESSDPQRRSLLREKIVPFESYANTLVTKKEVSLDVKAKNSSYSVWEANLKEFKCKMGYENEIEMVVDESDAMET
